From publication PMC10163288
Some of the results follow.

B1: il2ra_site2_2erj_sap_24_mot_66c2fca85847babee3b8944584cfd08f_0001_1_000000232_0001_16_30_H_._595119ead38f9ce12e857540ce41a9a5_0001_1_af2_0001_0000200009_0000001 … (protein)
chain: SSSSDAQELAREVFEQIHRLFKEGDREEIEELTERVRRELEELGDPHAAEAIERAARFALSSSSS
B2: il2ra_site2_2erj_normal_mot_HHH_b1_02230_000000024_0001_20_37_H_._HHH_b1_04356_0001_0000400014_0000001_0 (protein)
chain: SSSSDREEVERLLEELEEAVERNDFSLFLKLAREILELILEIGDDRLAELLNRLSKLAMHSSSSS
B3: il2ra_site1_3nfp_sap_8_mot_HHH_b1_04221_000000040_0001_40_56_H_._16d56542c9725820401ab7c11c235cbe_0001_0001_0000300014_0000001_0_0001 (protein)
chain: SSSSNEAAREATELMREIRRLLKEGNPEEARKLLEELEELAERNNDPVLKWLVRQFEESINSSSS
B4: il2ra_site2_2erj_sap_17_mot_HHH_b2_02500_af2_000000175_0001_19_35_H_._HHH_b2_04242_af2_0001_0000200003_0000001_0_0001 (protein)
chain: SSSSLREVYEVANEATHLLANGNPEEAEKLLEELLEELKRRGDESAFKLVEELLKTVEHISSSSS
B5: il2ra_site1_2b5i_normal_mot_HHH_b2_04910_000000118_0001_1_19_H_._HHH_b1_05812_af2_0001_0000100003_0000001_0_af2pred_dldesign_0_af2pred (protein)
chain: SSSSSPAAEEARRLFEAANEAKAAGDDAGATALLEEALRLAEAAGNAVLARLIRRALESLSSSSS
B6: il2ra_site2_2erj_normal_mot_HHH_b1_08185_000000063_0001_41_55_H_._3a06290c8baa6e8619b69186753886c6_0001_af2_0001_0000100009_0000001_0 (protein)
chain: DETEEALIELLLKAKSPSEIELIIRYIELSLKDTGDPRLEELLELAERLLRGDPEAEELLRELLP
B7: il2ra_site1_1z92_sap_10_mot_7b521abccb2855357a08c3dc921ef1fd_0001_000000147_0001_1_13_H_._HHH_b2_07324_0001_0000100009_0000001_0_0001_af2pred_0001_af2pred (protein)
chain: SSSSDEEEEELEKFVEELAEEFNLSESDKRQLKLMARRALEEGLDPEVIERDLKFAAEHLSSSSS
B8: il2ra_site1_1z92_normal_mot_HHH_b2_08343_af2_000000022_0001_38_52_H_._HEEHE_0007_0001_0000200026_0000001_0_af2pred_0001_af2pred (protein)
chain: SEEETIEKDVEAFAKFAGVPSVEVTSSNGKFSVTLEGQDHAARTAKRHIERTAKLAGLDLEVEIE
B9: il2ra_site2_3nfp_normal_mot_HHH_b2_07840_000000026_0001_18_34_H_._HHH_b1_05957_af2_0001_0000700038_0000001_0 (protein)
chain: SSSSSDVEELEEEIKRLLEEGDPEEAKELLKEVSQLAFERRDHELFALVLDLLELLARLESSSSS
B10: il2ra_site2_2erj_normal_mot_6d5f7cbc25fed124e3eb7f952334b9cf_0001_af2_000000048_0001_1_13_H_._HHH_b2_06289_af2_0001_0000400011_0000001_1 (protein)
chain: SSSSSDAAEIAREAFEKAREAFKNGDDEEAEEILEEAIELVHELNDEAAELALRALLRYLSSSSS
B11: il2ra_site2_3nfp_sap_12_mot_HHH_b2_07129_000000128_0001_19_36_H_._HHH_b2_01945_0001_0000500022_0000001_0_0001 (protein)
chain: SSSSDKRERYLRAALEAIRRAIEEGDEEAARRLLETVKAAAEDANDEEIQRLVEELEEELRSSSS
B12: il2ra_site1_1z92_sap_12_mot_HHH_b1_08139_000000022_0001_43_56_H_._HHH_b2_05798_af2_0001_0000300023_0000001_0_0001_af2pred_0001_af2pred (protein)
chain: SSSSDARKEALELFERANEAVKNGNPEEARELLERAEELAEEGGSPSALRSIRAALRQLKSSSSS
B13: il2ra_site1_1z92_sap_12_mot_HHH_b2_05238_af2_000000252_0001_38_55_H_._HHH_b2_00948_0001_0000400025_0000001_0_0001_af2pred_0001_af2pred (protein)
chain: SSSSSSIEEVSRFLFEQLKRKLELGNERAVRRISKIAREVAELSKDEELEELVEEAERFLSSSSS
B14: il2ra_site1_2b5i_sap_10_mot_HHH_b1_01495_af2_000000272_0001_42_56_H_._HHH_b1_06534_0001_0000200011_0000001_0_0001_af2pred_dldesign_0_af2pred (protein)
chain: SSSSSPEAEKIYEEAKKKAEELKKAGKPREALKVLEEAYKEVSKLDDDELEDKLHELAKEISSSS
B15: il2ra_site1_3nfp_normal_mot_HHH_b2_08362_000000025_0001_23_39_H_._0bad3e1dd0b580ac51794e340135530b_0001_0001_0000200035_0000001_0_af2pred_0001_af2pred (protein)
chain: DESRELKEAARLLPPELNRELQRALHLLIKLGDNELLRKLVELALLLAQGDPEAEEEFEEVIRIP
B16: il2ra_site1_3nfp_sap_8_mot_d8099cd8ef6a59b9c03de2010570d688_0001_af2_000000259_0001_37_51_H_._HHH_b2_05910_0001_0000100005_0000001_0_0001 (protein)
chain: SAEEFVKRAKELVPPELQELLERALELALKRQDPKLARLLIKAVAAIQQGDPEKAEEVLKELEER
B17: il2ra_site1_3nfp_normal_mot_HHH_b2_02886_000000287_0001_1_17_H_._ac5a625a7d57d61210602084a13af12d_0001_0001_0000300032_0000001_0_af2pred_0001_af2pred_1_swapped (protein)
chain: TEELTEEILELLRKDPLEALRLFKELLRKKGIPPEEAKKLAEEVARLAAKLPPEELEEFIRELLR
B18: il2ra_site2_2erj_sap_20_mot_HHH_b2_00789_000000198_0001_40_54_H_._HHH_b2_06681_0001_0000100009_0000001_0_0001 (protein)
chain: SSSSDEEIERVSELLREAVHLSQNGNPEEAERVLEEALRIAEESGDPELREAVRLMLEFLSSSSS

Target: il2ra, P01589
Test: yeast display titration

Apparent Kd, inactive:
B1 no binding seen, B2 no binding seen, B3 no binding seen, B4 no binding seen, B5 no binding seen, B6 no binding seen, B7 no binding seen, B8 no binding seen, B9 no binding seen, B10 no binding seen, B11 no binding seen, B12 no binding seen, B13 no binding seen, B14 no binding seen, B15 no binding seen, B16 no binding seen, B17 no binding seen, B18 no binding seen
